Values of other authors in US9044520B2, “Compound accumulating in inflammatory site, diagnostic agent containing the compound in labeled state and its precursor compound for labeling” (Nihon Medi-Physics Co., Ltd., priority 2011, dated 2015).
The match of structure and compound is tentative.

The chains behind the UniProt entries cited, without tags or fusion partners.
UniProt P21462, whole entry: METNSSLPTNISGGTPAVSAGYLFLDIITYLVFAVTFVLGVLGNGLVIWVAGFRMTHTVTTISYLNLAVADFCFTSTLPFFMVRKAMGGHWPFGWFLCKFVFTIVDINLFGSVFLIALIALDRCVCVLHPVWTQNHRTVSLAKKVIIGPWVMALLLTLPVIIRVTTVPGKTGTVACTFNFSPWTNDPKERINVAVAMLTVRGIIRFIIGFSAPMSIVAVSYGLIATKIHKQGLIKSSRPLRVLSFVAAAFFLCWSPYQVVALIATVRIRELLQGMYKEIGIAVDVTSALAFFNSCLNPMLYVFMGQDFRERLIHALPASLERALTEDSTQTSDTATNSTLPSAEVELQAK

Target: formylated peptide receptor (FPR) (Homo sapiens, UniProt P21462)
Conditions: read-out: Kd Value of Radioligand; value used in equation (1) for Ki calculation; source not stated, radioligand obtained from PerkinElmer; cited from earlier work

SMILES: CSCC[C@H](NC(=O)[C@H](Cc1ccc(O)c([125I])c1)NC(=O)[C@H](CCCCN)NC(=O)[C@@H](N)Cc1c[nH]c2ccccc12)C(=O)N[C@H](C(=O)N[C@H](CCSC)C(N)=O)C(C)C
- Kd: 390 pM
